Assay results reported in patent publication US9314029B2, “Control and repellency of mosquitoes” (BEDOUKIAN RESEARCH, INC., priority 2012, dated 2016).

Test system: Aedes aegypti
Test: Repellency on treated membrane-covered blood-filled wells
Format: in vivo
Conditions: 7% in isopropanol, 20 min
Method: The invention is illustrated by, but not limited to, the following examples. • Five replicates of 250 adult female mosquitoes each were placed in clear plastic cages with access to five warmed, blood-filled, membrane-covered wells. The mosquitoes were Aedes aegypti unless otherwise noted. Membranes were treated with repellent. Five replicates were tested. Each replicate used a fresh batch of mosquitoes, blood and treated membranes. The number of mosquitoes probing each well was recorded at two minute intervals for 20 minutes. The total numbers of probes on each well were tallied at the end of the observation period and the average percentage repellency relative to the control was calculated for each formulation.

SMILES: CCCCCCCC1CCC(=O)O1 (centres unmarked) [gamma-undecalactone]
- Avg # Probes: 0
- Avg % Repellency (relative to control): 100%
